# Source: publication PMC10712316
# Amino acid sequences for entries named in this document (tags omitted).
# UniProt Q13526: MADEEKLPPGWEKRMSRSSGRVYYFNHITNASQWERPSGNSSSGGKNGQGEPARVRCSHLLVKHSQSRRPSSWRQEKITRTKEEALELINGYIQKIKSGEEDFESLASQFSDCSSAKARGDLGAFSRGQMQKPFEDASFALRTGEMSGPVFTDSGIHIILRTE
# UniProt P05412: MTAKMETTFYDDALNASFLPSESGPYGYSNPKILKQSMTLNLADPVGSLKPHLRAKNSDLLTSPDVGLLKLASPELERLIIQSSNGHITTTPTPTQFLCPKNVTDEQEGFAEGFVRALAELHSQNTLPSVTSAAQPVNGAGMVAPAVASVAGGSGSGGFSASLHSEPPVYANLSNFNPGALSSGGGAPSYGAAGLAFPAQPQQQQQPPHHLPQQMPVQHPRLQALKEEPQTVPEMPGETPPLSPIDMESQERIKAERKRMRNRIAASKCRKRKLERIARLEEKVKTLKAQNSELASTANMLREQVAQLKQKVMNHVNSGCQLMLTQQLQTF
# UniProt Q04206: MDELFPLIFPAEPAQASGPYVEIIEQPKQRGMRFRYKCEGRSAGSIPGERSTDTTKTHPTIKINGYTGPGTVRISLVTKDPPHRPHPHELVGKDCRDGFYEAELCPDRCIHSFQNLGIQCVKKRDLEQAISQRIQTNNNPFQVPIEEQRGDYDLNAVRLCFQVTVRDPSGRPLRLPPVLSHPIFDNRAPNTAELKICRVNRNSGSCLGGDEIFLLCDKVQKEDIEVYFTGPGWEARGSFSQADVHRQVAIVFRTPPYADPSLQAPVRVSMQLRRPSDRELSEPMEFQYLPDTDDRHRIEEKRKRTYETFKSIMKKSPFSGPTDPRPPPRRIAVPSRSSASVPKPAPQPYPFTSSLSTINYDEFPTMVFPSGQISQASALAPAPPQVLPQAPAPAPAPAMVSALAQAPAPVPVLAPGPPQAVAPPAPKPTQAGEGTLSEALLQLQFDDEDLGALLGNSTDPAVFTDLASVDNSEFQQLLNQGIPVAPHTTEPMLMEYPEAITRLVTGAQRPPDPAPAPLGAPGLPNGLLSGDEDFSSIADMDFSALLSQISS
# These are yes or no findings as the source states them, for the method shown. Binding seen in cells or lysates may run through a third protein. Some binding calls cover weakened binding; strength is not graded here.
# Target: GST-Pin1 (peptidyl-prolyl cis-trans isomerase NIMA-interacting 1) (UniProt Q13526)
# Test: pull-down; glutathione-Sepharose beads with 5 ug GST or GST-Pin1 incubated with clarified lysate of HKBML cells (co-cultured with BVPs), 4°C, 3 h; 50 mM HEPES pH 7.4, 200 mM NaCl, 10% glycerol, 1% Triton X-100; three washes; immunoblot; only the target purified
row,Substance,binding
1,c-Jun (from UniProt P05412 1-331),binds
2,NF-κB p65 (from UniProt Q04206 1-551),binds
